Data taken from PMC3849010.
Results are given in words; binding and its absence hold for the method and conditions named. Some binding calls cover weakened binding; strength is not graded here.

The chains behind the UniProt entries cited, without tags or fusion partners. Residues count along the entry.
UniProt P19838, residues 1-433: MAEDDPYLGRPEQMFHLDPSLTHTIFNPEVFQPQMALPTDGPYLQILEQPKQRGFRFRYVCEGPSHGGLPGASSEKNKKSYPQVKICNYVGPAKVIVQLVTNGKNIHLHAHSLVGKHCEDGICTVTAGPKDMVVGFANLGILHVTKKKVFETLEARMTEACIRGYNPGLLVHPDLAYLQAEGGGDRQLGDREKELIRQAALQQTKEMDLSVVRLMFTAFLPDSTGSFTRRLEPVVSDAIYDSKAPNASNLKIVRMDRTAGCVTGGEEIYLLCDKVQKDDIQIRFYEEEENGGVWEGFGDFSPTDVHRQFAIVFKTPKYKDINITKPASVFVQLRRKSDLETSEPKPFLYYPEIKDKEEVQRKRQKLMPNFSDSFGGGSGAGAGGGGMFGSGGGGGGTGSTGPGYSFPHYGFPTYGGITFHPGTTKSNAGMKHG
UniProt Q04206: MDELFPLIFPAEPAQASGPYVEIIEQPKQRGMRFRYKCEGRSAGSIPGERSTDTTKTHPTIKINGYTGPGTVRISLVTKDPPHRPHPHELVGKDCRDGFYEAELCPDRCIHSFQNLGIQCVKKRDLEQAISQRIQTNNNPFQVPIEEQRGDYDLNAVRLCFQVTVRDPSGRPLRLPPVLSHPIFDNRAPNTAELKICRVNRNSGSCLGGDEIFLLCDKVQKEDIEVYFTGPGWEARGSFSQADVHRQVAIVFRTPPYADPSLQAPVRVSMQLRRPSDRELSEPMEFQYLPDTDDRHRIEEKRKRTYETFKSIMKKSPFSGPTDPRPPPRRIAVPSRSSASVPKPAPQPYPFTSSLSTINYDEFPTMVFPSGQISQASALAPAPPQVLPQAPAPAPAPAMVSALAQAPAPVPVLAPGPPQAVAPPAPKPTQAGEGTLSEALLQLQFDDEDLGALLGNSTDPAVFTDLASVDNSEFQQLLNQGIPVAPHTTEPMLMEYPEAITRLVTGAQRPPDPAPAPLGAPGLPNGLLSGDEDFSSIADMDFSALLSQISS

Columns and labels:
[1] = target: FLAG-p50 (NF-κB p50) (UniProt P19838); assay: native gel or EMSA; extracts of A293 cells transfected with FLAG-p65 and FLAG-p50 alone or together; 32P-labeled MIR155HG -178 or MHC1 κB-site probe; heterodimer seen as a DNA-bound band of intermediate mobility, supershifted by two p65 antibodies; 30 min at room temperature, 25 mM Tris-HCl pH 7.4, 100 mM KCl; 5% non-denaturing polyacrylamide gel
[2] = target: NF-κB p50, endogenous in BJAB cells (human (endogenous in BJAB)) (UniProt P19838); assay: native gel or EMSA; nuclear extracts of BJAB cells treated with 5 μg/ml LPS for 0 or 60 min; 32P-labeled MIR155HG -178 probe; new DNA-bound band co-migrating with the A293 p50/p65 control and supershifted by p65 antibody

Substance | binding [1] | binding [2]
FLAG-p65 (NF-κB p65) (from UniProt Q04206 1-551) | binds | –
NF-κB p65, endogenous in BJAB cells (from UniProt Q04206 1-551) | – | binds
